# Binding screen against folded nucleic acids

Source: the ROBIN nucleic acid binder screens (doi:10.1002/anie.202211358).

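Compounds were printed on reactive glass slides in duplicate spots, a dye-labelled oligonucleotide was laid over them, and the fluorescence left after washing was read. The data file lists only calls. An earlier report of the laboratory on the PreQ1, TPP and SAM-II riboswitches (doi:10.1038/s41467-019-09493-3) used 1 µM RNA for 2 h and required a mean Z-score above 3 (spot signal-to-noise against the whole library), a score well above that on a control array, and duplicate spots agreeing (coefficient of variation under 100); it then also set aside compounds that hit other targets, which this list keeps. The cut-offs behind this list may differ. A missing hit is not proof of no binding, and a hit is not a measured affinity.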 “active” means called a hit, “inactive” means screened and not called a hit. This is an unselected part of the compounds tested. A target missing from an entry has no call listed here.

Targets (5′ to 3′):
PreQ1: PreQ1 riboswitch RNA pseudoknot, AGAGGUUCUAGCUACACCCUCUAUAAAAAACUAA. From B. subtilis. About 170 hits among about 24,000 compounds.
SAM-II: SAM-II riboswitch RNA pseudoknot, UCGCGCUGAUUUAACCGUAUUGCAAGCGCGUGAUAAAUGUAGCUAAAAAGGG. About 200 hits among about 21,000 compounds.
TPP: TPP riboswitch RNA three-way junction, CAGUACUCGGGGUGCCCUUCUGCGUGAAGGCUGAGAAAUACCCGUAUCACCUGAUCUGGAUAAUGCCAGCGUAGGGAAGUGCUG. About 160 hits among about 24,000 compounds.

* Cc1ccc2cc3c(ccc4ccccc43)c3c2c1CC3 : PreQ1: inactive; SAM-II: inactive; TPP: inactive
* Cc1ccc(-c2ccc(Cl)nn2)cc1N : PreQ1: inactive; SAM-II: inactive; TPP: inactive
* CC(C)NS(=O)(=O)c1cc(C(=O)O)cc(-n2nc(-c3ccco3)nc2N)c1 : PreQ1: inactive; SAM-II: inactive; TPP: inactive
* O=C1NCCc2[nH]c(-c3ccncc3)cc21 : PreQ1: inactive; SAM-II: inactive; TPP: inactive
* O=C1N(Cc2ccc(F)c(F)c2)CCCC12CCNC2 (stereo unspecified) : PreQ1: inactive; SAM-II: inactive; TPP: inactive
* CN1CCN([C@H]2CN(Cc3ncc[nH]3)C[C@@H]2O)CC1 : PreQ1: inactive; SAM-II: inactive; TPP: inactive
* COc1ccc(Nc2nc(-c3sc(C)nc3C)cs2)c(OC)c1 : PreQ1: inactive; SAM-II: inactive; TPP: inactive
* COc1ccc(-c2ccc(CNC(C)C)o2)cc1Cl : PreQ1: inactive; TPP: inactive
* CCOc1ccccc1NC(=O)c1sc2nc3c(cc2c1N)CN(Cc1ccccc1)CC3 : PreQ1: inactive; SAM-II: inactive; TPP: inactive
* CCOc1ccc(CNCCNC(=O)c2nonc2N)cc1 : PreQ1: inactive; SAM-II: inactive; TPP: inactive
* Cc1ocnc1C(=O)N1CCC(c2nnc(CN(C)CCO)n2C)CC1 : PreQ1: inactive; SAM-II: inactive; TPP: inactive
* Nc1cc(-c2ccccc2)nn1S(=O)(=O)c1ccc(F)c(Cl)c1 : PreQ1: inactive; SAM-II: inactive; TPP: inactive
* COc1ccc2ccccc2c1CNCc1ccncc1 : PreQ1: inactive; SAM-II: inactive; TPP: inactive
* N[C@@H]1c2ccccc2C2(CCN(c3cnc4ccccc4n3)CC2)[C@H]1O : PreQ1: inactive; SAM-II: inactive; TPP: inactive
* COc1ccccc1NC(=O)CCc1c(C)nc2nc(CN)nn2c1C : PreQ1: inactive; TPP: inactive
* Cc1ccc(Nc2nc(N)nc(CSc3nnc(C)s3)n2)cc1 : PreQ1: inactive; SAM-II: inactive; TPP: inactive
* COc1nc(NC(C)C)nc(N2CC3CC(C2)c2cccc(=O)n2C3)n1 (stereo unspecified) : PreQ1: inactive; SAM-II: inactive; TPP: inactive
* Clc1ccc(Nc2ncnc3c2nc2n3CCCCC2)cc1 : PreQ1: inactive; TPP: inactive
* Cn1c(-c2ccccc2)cnc1NCc1cccc(Cl)c1 : PreQ1: inactive; SAM-II: inactive; TPP: inactive
* COC(=O)C1=C(C(=O)OC)SC(=C2C(=NCc3ccccc3)C(C)(C)Nc3ccc(C)cc32)S1 : PreQ1: inactive; SAM-II: inactive; TPP: inactive
* COc1cc(CNCCc2ccc(F)cc2)cc(OC)c1OC : PreQ1: inactive; SAM-II: inactive; TPP: inactive
* COc1cccc(Nc2c(F)c(OC)c(F)c(F)c2C(=O)O)c1 : PreQ1: inactive; SAM-II: inactive; TPP: inactive
* O=C(NCCNc1cccnc1)c1cnc(Nc2ccccc2)nc1 : PreQ1: inactive; SAM-II: active; TPP: inactive
* O=C(NC1CC1)C1CNCCN1C(=O)c1cc2c(s1)CCCCC2 (stereo unspecified) : PreQ1: inactive; SAM-II: inactive; TPP: inactive
* CC(C)c1cc(N(C)CCc2cnn(C)c2)nc(N)n1 : PreQ1: inactive; SAM-II: inactive; TPP: inactive
* O=C1c2c(O)cccc2[C@@H]([C@@H]2O[C@H](CO)[C@@H](O)[C@H](O)[C@H]2O)c2cc(CO)cc(O)c21 : PreQ1: inactive; SAM-II: inactive; TPP: inactive
* CCc1c(C#N)c(N)nc(SCC(=O)Nc2ccc(Br)cc2)c1C#N : PreQ1: inactive; SAM-II: inactive; TPP: inactive
* COc1ccc2c(c1)CCc1sc(N)nc1-2 : PreQ1: inactive; SAM-II: inactive; TPP: inactive
* O=C(c1onc2ccccc12)N1CCC2(CCCNC2)C1 (stereo unspecified) : PreQ1: inactive; SAM-II: inactive; TPP: inactive
* Cc1ccc(-c2nc(S(=O)(=O)c3ccccc3)c(NCC3CCCO3)o2)cc1 (stereo unspecified) : PreQ1: inactive; TPP: inactive
* COc1ccc(-c2[nH]c3c(C#N)cnn3c2NC2CCCCC2)c(OC)c1 : PreQ1: inactive; TPP: inactive
* Cc1noc2ncnc(N3CCN(Cc4ccccc4)C(CCO)C3)c12 (stereo unspecified) : PreQ1: inactive; SAM-II: inactive; TPP: inactive
* Cn1c(=O)c2c(-c3ccc(F)cc3)n(CCCO)cc2n(C)c1=O : PreQ1: inactive; SAM-II: inactive; TPP: inactive
* O=C(c1ccc(F)c(F)c1Nc1ccc(I)cc1F)N1CC(O)([C@H]2CCCCN2)C1 : PreQ1: inactive; SAM-II: inactive; TPP: inactive
* Cc1c(C#N)c(N)n(-c2ccc(F)cc2)c1C : PreQ1: inactive; SAM-II: inactive; TPP: inactive
* CC1(C)CC[C@]2(C(=O)n3ccnc3)CC[C@]3(C)[C@H](C(=O)C=C4[C@@]5(C)C=C(C#N)C(=O)C(C)(C)[C@@H]5CC[C@]43C)[C@@H]2C1 : PreQ1: inactive; SAM-II: inactive; TPP: inactive
* COc1ccccc1NC(=O)CCNc1nc(N(C)C)nc2c1CCNC2 : PreQ1: inactive; SAM-II: inactive; TPP: inactive
* OCc1ccc(-c2nn(Cc3ccccc3)c3ccccc23)o1 : PreQ1: inactive; SAM-II: inactive; TPP: inactive
* CCn1cncc1CNc1ncc(S(C)(=O)=O)c(C2CCCNC2)n1 (stereo unspecified) : PreQ1: inactive; SAM-II: inactive; TPP: inactive

For reference, 3 entries once more:

Compound	PreQ1	SAM-II	TPP
O=C(c1onc2ccccc12)N1CCC2(CCCNC2)C1 (stereo unspecified)	inactive	inactive	inactive
Cn1c(-c2ccccc2)cnc1NCc1cccc(Cl)c1	inactive	inactive	inactive
COc1ccc2ccccc2c1CNCc1ccncc1	inactive	inactive	inactive